The list is a part of this screen's results and no random one: it is rich in T/C values a quarter to a half above the control, in often repeated tests (any T/C) and in doses without a T/C. Further doses and runs are listed elsewhere. T/C: endpoint of the treated group in % of that of the vehicle group. Some entries give survivors of the animals treated and no T/C: the source files T/C as zero there, which appears to mark a toxic dose or a test without result, not a measured value. Some doses without a T/C left all or most animals alive at the check, yet need not have been tolerated: the source hardly ever lists a survival T/C far under the control, and the zero likely stands for such cases as well. Survivors were counted at the toxicity check, usually on the fifth day, unless a day is given; later deaths do not show. Schedules are NCI's codes, taken here to give the interval after Q, in days (D) or hours (H), and the number of doses after X. Some structures stand for samples that the source files as different forms (salt, stereo form or complex); doses refer to the form tested. Some entries were tested several times; the results are listed from low to high. For survival time, the PubChem record calls one and a half times the control and up active, and a quarter to a half above the control has no call in these data; cut-offs in other NCI protocols can differ. Some T/C values are followed by the survivors on the day toxicity was checked, most often the fifth; without a count, all were alive then.
Test system: P388 leukemia ip, CD2F1 mice, survival T/C
Assay: NCI In Vivo Anticancer Drug Screen. Data for tumor model P388 Leukemia (intraperitoneal) in CD2F1 (CDF1) mice
Conditions: T/C endpoint: median survival time, higher T/C = longer survival
[1] = dose: 60.0 mg/kg/injection, schedule: Q01DX005 (ip), vehicle: saline with Tween-80
[2] = dose: 120.0 mg/kg/injection, schedule: Q01DX005 (ip), vehicle: saline with Tween-80
[3] = dose: 240.0 mg/kg/injection, schedule: Q01DX005 (ip), vehicle: saline with Tween-80
[4] = dose: 200.0 mg/kg/injection, schedule: Q04DX003 (ip), vehicle: saline
[5] = dose: 100.0 mg/kg/injection, schedule: Q04DX003 (ip), vehicle: saline with Tween-80
[6] = dose: 400.0 mg/kg/injection, schedule: Q04DX003 (ip), vehicle: saline with Tween-80
[7] = dose: 200.0 mg/kg/injection, schedule: Q01DX009 (ip), vehicle: saline with Tween-80
[8] = dose: 200.0 mg/kg/injection, schedule: Q01DX005 (ip), vehicle: saline with Tween-80
[9] = dose: 12.5 mg/kg/injection, schedule: Q01DX009 (ip), vehicle: saline
[10] = dose: 50.0 mg/kg/injection, schedule: Q01DX009 (ip), vehicle: saline
[11] = dose: 100.0 mg/kg/injection, schedule: Q01DX009 (ip), vehicle: saline
[12] = dose: 200.0 mg/kg/injection, schedule: Q01DX009 (ip), vehicle: saline
[13] = dose: 50.0 mg/kg/injection, schedule: Q01DX005 (ip), vehicle: Klucel (hydroxypropylcellulose) (HPC)
[14] = dose: 100.0 mg/kg/injection, schedule: Q01DX005 (ip), vehicle: Klucel (hydroxypropylcellulose) (HPC)
[15] = dose: 200.0 mg/kg/injection, schedule: Q01DX005 (ip), vehicle: Klucel (hydroxypropylcellulose) (HPC)
[16] = dose: 200.0 mg/kg/injection, schedule: Q01DX005 (ip), vehicle: Klucel + Tween-80

For `[Ni].c1c[nH]cn1.c1c[nH]cn1.c1c[nH]cn1.c1c[nH]cn1.c1c[nH]cn1.c1c[nH]cn1`, the survivor count (dose: 100.0 mg/kg/injection, schedule: Q01DX005 (ip), vehicle: saline) was 6 of 6 and the survivor count (dose: 200.0 mg/kg/injection, schedule: Q01DX005 (ip), vehicle: saline) was 0 of 6.
In the case of `O=C1NC(=O)c2c1c1cnn(-c3ccccc3)c1n1cccc21`, the survivor count [1] is reported as 6 of 6, the survivor count [2] is reported as 6 of 6 and the survivor count [3] is reported as 6 of 6.
With `CN1C(c2cccnc2)=NCC12CCCC2` the survivor count (dose: 60.0 mg/kg/injection, schedule: Q01DX005 (ip), vehicle: saline) was 1 of 6, the survivor count (dose: 120.0 mg/kg/injection, schedule: Q01DX005 (ip), vehicle: saline) was 0 of 6 and the survivor count (dose: 240.0 mg/kg/injection, schedule: Q01DX005 (ip), vehicle: saline) was 0 of 6.
`c1cc2cc(-c3ccc4cc(C5=NCCN5)[nH]c4c3)[nH]c2cc1C1=NCCN1` was tested, and the T/C [4] was 137 % of control [5 of 6 alive] and the survivor count (dose: 400.0 mg/kg/injection, schedule: Q04DX003 (ip), vehicle: saline) was 2 of 6.
`CCOC(=O)CCN(CC)CC` was tested, and the T/C (dose: 100.0 mg/kg/injection, schedule: Q04DX003 (ip), vehicle: saline) was 127 % of control and the T/C [4] was 145 % of control.
For `C#CC(OC(=O)NC1CCCCC1)(c1ccccc1)c1ccccc1`, the T/C (dose: 50.0 mg/kg/injection, schedule: Q04DX003 (ip), vehicle: saline with Tween-80) was 135 and 136 % of control, the survivor count (dose: 75.0 mg/kg/injection, schedule: Q01DX009 (ip), vehicle: saline with Tween-80) was 6 of 6 and the T/C [5] was 141 % of control. The survivor count (dose: 200.0 mg/kg/injection, schedule: Q04DX003 (ip), vehicle: saline with Tween-80) was 6 of 6 and the survivor count [6] was 0 of 6.
For `c1ccc(N=P(c2ccccc2)(c2ccccc2)c2ccccc2)cc1`, the survivor count [7] was 0 of 6.
For `CCCCCCCCCCCCCCCCS(=O)(=O)c1ccc(NN)cc1`, the survivor count (dose: 50.0 mg/kg/injection, schedule: Q01DX009 (ip), vehicle: Klucel (hydroxypropylcellulose) (HPC)) was 6 of 6.
For `c1ccc(C2CN3CCSC3=N2)cc1` (stereo not given), the survivor count [1] was 0 of 6, the survivor count [2] was 0 of 6 and the survivor count [3] was 0 of 6.
With `COc1cc2cc[n+]3cc4c(ccc5ccccc54)cc3c2cc1OC` the T/C (dose: 3.13 mg/kg/injection, schedule: Q04DX003 (ip), vehicle: distilled water + Tween-80) was 146 % of control, the T/C (dose: 3.13 mg/kg/injection, schedule: Q04DX003 (ip), vehicle: water) was 127 % of control and the T/C (dose: 6.25 mg/kg/injection, schedule: Q04DX003 (ip), vehicle: water) was 142 % of control [5 of 6 alive]. The T/C (dose: 25.0 mg/kg/injection, schedule: Q04DX003 (ip), vehicle: water) was 148 % of control, the survivor count (dose: 50.0 mg/kg/injection, schedule: Q04DX003 (ip), vehicle: distilled water + Tween-80) was 0 of 6 and 3 of 4 and the survivor count (dose: 100.0 mg/kg/injection, schedule: Q04DX003 (ip), vehicle: distilled water + Tween-80) was 0 of 4. For the same compound, the survivor count (dose: 200.0 mg/kg/injection, schedule: Q04DX003 (ip), vehicle: distilled water + Tween-80) was 0 of 4 and the survivor count (dose: 400.0 mg/kg/injection, schedule: Q04DX003 (ip), vehicle: distilled water + Tween-80) was 0 of 4.
In the case of `COc1ccc(-c2c(-c3ccccc3)oc(/N=C/c3ccccc3)c2-c2ccccc2)cc1`, the survivor count (dose: 50.0 mg/kg/injection, schedule: Q01DX005 (ip), vehicle: saline with Tween-80) is reported as 6 of 6, the survivor count (dose: 100.0 mg/kg/injection, schedule: Q01DX005 (ip), vehicle: saline with Tween-80) is reported as 6 of 6 and the survivor count [8] is reported as 6 of 6.
For `CCC[CH2][Sn]([CH2]CCC)([O]C=O)[O]C=O`, the survivor count (dose: 0.39 mg/kg/injection, schedule: Q01DX009 (ip), vehicle: saline) was 4 of 6, the survivor count (dose: 0.79 mg/kg/injection, schedule: Q01DX009 (ip), vehicle: saline) was 6 of 6 and the survivor count (dose: 1.56 mg/kg/injection, schedule: Q01DX009 (ip), vehicle: saline) was 6 of 6. The T/C (dose: 3.12 mg/kg/injection, schedule: Q01DX009 (ip), vehicle: saline) was 90, 91, 101, 128 % of control, the survivor count (dose: 6.25 mg/kg/injection, schedule: Q01DX009 (ip), vehicle: saline) was 6 of 6 and the survivor count [9] was 0 of 6. The survivor count [10] was 0 of 6, the survivor count [11] was 0 of 6 and the survivor count [12] was 0 of 6.
`COC(=O)c1cc2cc(OC)c(OC)cc2c2ccccc12` was tested, and the survivor count [8] was 5 of 5.
`O=C(Nc1ccc(Cl)c(Cl)c1)Oc1cccnc1` was tested, and the survivor count [7] was 5 of 6.
`COC1=C(OC)C(=O)C(SCCCc2ccccc2)=CC1=O` was tested, and the survivor count (dose: 100.0 mg/kg/injection, schedule: Q04DX002 (ip), vehicle: saline with Tween-80) was 1 of 6, the survivor count (dose: 200.0 mg/kg/injection, schedule: Q04DX002 (ip), vehicle: saline with Tween-80) was 0 of 6 and the survivor count (dose: 400.0 mg/kg/injection, schedule: Q04DX002 (ip), vehicle: saline with Tween-80) was 0 of 6.
In the case of `CCC[CH2][Sn]([CH2]CCC)([CH2]CCC)[CH2]CCNCCCN(C)C`, the survivor count [10] is reported as 0 of 6, the survivor count [11] is reported as 0 of 6 and the survivor count [12] is reported as 0 of 6 and 1 of 6.
`c1ccc2[nH]c(CN(CCN(Cc3nc4ccccc4[nH]3)Cc3nc4ccccc4[nH]3)Cc3nc4ccccc4[nH]3)nc2c1` was tested, and the survivor count [13] was 1 of 5, the survivor count [14] was 0 of 5 and the survivor count [15] was 0 of 5.
`COc1cc(C)c(C(=O)Oc2cc(C)c(C(=O)O)c(O)c2)c(O)c1` was tested, and the survivor count [12] was 3 of 3.
In the case of `Nc1ccc(C(=O)Oc2ccc([N+](=O)[O-])cc2)cc1`, the survivor count [6] is reported as 6 of 6.
In the case of `CCCNC(=S)N/N=C(/C)CC/C(C)=N/NC(=S)NCCC`, the survivor count [11] is reported as 6 of 6 and the survivor count [12] is reported as 6 of 6.
For `O=C1C(c2ccccc2)=c2c(c3ccccc3c3ccccc23)=C1c1ccccc1`, the survivor count [16] was 6 of 6.
`Cc1cc2nc(CC(=O)c3ccc4ccccc4c3)c(=O)[nH]c2cc1C` was tested, and the survivor count [2] was 6 of 6 and the survivor count [3] was 4 of 6.
`Cn1c(=O)c2c(ncn2C)n(C)c1=O.[Cl][Pt]([Cl])[Cl]` was tested, and the T/C (dose: 25.0 mg/kg/injection, schedule: Q01DX005 (ip), vehicle: water) was 133 % of control, the T/C (dose: 50.0 mg/kg/injection, schedule: Q01DX005 (ip), vehicle: water) was 132 % of control and the T/C (dose: 100.0 mg/kg/injection, schedule: Q01DX005 (ip), vehicle: water) was 145 % of control. For the same compound, the survivor count (dose: 200.0 mg/kg/injection, schedule: Q01DX005 (ip), vehicle: water) was 0 of 6.
`Cc1ccc(C2=Nc3ccccc3SC(c3cccc([N+](=O)[O-])c3)C2)cc1` (stereo not given) was tested, and the survivor count [9] was 5 of 6 and the survivor count (dose: 25.0 mg/kg/injection, schedule: Q01DX009 (ip), vehicle: saline) was 5 of 6.
`CN1C2CCC1C1N=NN(c3cc(C(F)(F)F)cc(C(F)(F)F)c3)C1(N1CCOCC1)C2` (stereo not given) was tested, and the survivor count [16] was 6 of 6.
For `O=C/C=C/c1ccc2c(c1)OC(CO)C(c1ccc(O)c(O)c1)O2` (stereo not given), the survivor count (dose: 12.5 mg/kg/injection, schedule: Q01DX005 (ip), vehicle: Klucel (hydroxypropylcellulose) (HPC)) was 6 of 6, the survivor count (dose: 25.0 mg/kg/injection, schedule: Q01DX005 (ip), vehicle: Klucel (hydroxypropylcellulose) (HPC)) was 6 of 6 and the survivor count [13] was 6 of 6. For the same compound, the survivor count [14] was 6 of 6 and the survivor count [15] was 5 of 6.
`COC(=O)c1[nH]cnc1/N=N\N(CCF)CCF` was tested, and the T/C (dose: 30.0 mg/kg/injection, schedule: Q04DX003 (ip), vehicle: saline with Tween-80) was 130 % of control [5 of 6 alive] and the survivor count [5] was 2 of 6.
`C[N+](C)(C)CCC(=O)c1ccc([N+](=O)[O-])cc1` was tested, and the survivor count [12] was 0 of 6.
